Source: patent US20220267454A1
These are yes or no findings as the source states them, for the method shown. Some entries that bind do so weakly or less than the wild type.

By UniProt entry, the sequences of proteins in these tests, tags left out. Residues count along the entry.
UniProt Q9NPH3, residues 21-367: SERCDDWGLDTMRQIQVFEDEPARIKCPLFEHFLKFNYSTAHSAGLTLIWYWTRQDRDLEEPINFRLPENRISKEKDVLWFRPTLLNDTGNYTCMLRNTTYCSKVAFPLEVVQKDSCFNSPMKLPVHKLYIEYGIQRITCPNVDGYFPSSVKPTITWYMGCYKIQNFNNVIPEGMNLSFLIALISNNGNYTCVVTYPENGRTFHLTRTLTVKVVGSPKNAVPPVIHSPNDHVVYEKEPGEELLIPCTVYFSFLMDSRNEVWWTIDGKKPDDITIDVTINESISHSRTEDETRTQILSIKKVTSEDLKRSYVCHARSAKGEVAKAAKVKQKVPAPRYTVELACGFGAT

What was measured:
[1] = target: human IL1RAP (analyte of the Biacore study) (human) (UniProt Q9NPH3); assay: SPR (Biacore T200)
[2] = target: recombinant M. fascicularis IL1RAP (aa21-367) (Macaca fascicularis (cynomolgus)); assay: ELISA on recombinant M. fascicularis IL1RAP (aa21-367)

binding [1]: binds | binding [2]: binds
B1: CAN03 (antibody, V domains shown)
VH: DVKLVESGGGLVKPGGSLKLSCAASGFTFSIYTMSWVRQTPEKRLEWVATISIGGSYINYPDSVKGRFTISRDNAKNTLYLQMSSLKSEDTAIYYCSREVDGSYAMDYWGQGTSVTVSS
VL: DILLTQSPAILSVSPGERVSFSCRASQSIGTSIHWYQRRTNGSPRLLIKSASESISGIPSRFSGSGSGTDFTLSINSVESEDIADYYCQQSNSWPTTFGAGTKLELKR
